In the supplement of paper PMC11006884:
This is a selection; strong and weak results do not stand in their true shares.

The chains behind the UniProt entries cited, without tags or fusion partners. Where a name states a change or a piece, a line headed by the entry shows the natural chain unless it says otherwise.
UniProt P55769: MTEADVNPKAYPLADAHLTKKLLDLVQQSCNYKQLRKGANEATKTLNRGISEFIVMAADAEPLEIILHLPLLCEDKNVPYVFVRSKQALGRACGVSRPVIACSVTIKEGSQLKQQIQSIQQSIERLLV
UniProt P52597: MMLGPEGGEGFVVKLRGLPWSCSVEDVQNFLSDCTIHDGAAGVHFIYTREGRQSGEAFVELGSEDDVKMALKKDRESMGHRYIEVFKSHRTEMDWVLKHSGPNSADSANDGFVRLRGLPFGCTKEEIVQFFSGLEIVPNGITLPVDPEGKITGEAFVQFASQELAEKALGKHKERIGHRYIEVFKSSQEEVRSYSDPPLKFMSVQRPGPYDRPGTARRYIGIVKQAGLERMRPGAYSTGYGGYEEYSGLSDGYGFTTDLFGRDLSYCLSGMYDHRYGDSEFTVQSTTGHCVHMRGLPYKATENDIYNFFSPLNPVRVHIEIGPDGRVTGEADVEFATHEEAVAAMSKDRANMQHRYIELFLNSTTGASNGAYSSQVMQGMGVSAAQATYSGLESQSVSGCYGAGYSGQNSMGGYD
UniProt P55265: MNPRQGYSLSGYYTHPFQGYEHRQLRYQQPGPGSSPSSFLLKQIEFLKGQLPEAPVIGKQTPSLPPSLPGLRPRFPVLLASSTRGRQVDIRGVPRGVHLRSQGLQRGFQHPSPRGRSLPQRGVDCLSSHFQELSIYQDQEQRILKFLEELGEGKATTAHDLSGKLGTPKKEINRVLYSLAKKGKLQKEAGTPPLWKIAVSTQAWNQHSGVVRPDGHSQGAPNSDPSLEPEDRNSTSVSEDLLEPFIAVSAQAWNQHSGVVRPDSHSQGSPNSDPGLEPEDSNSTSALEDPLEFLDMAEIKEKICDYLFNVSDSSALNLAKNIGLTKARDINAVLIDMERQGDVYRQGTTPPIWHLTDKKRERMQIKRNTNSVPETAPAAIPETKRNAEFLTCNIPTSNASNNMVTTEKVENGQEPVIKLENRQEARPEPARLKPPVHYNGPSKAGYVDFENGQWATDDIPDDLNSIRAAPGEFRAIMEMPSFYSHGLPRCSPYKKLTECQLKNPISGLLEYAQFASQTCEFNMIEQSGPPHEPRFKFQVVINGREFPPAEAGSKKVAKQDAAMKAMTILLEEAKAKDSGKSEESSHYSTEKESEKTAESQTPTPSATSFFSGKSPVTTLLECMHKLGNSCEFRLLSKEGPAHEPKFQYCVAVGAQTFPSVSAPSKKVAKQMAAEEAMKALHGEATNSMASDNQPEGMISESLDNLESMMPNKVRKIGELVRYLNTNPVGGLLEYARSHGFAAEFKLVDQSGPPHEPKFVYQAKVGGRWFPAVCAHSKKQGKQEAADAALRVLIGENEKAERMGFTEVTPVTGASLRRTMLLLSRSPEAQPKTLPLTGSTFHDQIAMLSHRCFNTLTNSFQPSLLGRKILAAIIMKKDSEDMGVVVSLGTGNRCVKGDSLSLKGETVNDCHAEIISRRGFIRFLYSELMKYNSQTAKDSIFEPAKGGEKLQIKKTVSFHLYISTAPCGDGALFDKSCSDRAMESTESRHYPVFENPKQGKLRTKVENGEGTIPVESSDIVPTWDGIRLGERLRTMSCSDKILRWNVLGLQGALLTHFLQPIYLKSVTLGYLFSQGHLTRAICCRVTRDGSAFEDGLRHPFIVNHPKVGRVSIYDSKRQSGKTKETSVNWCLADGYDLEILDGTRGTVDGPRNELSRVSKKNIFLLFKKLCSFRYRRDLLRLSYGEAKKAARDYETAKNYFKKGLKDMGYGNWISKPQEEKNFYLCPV
UniProt P51957: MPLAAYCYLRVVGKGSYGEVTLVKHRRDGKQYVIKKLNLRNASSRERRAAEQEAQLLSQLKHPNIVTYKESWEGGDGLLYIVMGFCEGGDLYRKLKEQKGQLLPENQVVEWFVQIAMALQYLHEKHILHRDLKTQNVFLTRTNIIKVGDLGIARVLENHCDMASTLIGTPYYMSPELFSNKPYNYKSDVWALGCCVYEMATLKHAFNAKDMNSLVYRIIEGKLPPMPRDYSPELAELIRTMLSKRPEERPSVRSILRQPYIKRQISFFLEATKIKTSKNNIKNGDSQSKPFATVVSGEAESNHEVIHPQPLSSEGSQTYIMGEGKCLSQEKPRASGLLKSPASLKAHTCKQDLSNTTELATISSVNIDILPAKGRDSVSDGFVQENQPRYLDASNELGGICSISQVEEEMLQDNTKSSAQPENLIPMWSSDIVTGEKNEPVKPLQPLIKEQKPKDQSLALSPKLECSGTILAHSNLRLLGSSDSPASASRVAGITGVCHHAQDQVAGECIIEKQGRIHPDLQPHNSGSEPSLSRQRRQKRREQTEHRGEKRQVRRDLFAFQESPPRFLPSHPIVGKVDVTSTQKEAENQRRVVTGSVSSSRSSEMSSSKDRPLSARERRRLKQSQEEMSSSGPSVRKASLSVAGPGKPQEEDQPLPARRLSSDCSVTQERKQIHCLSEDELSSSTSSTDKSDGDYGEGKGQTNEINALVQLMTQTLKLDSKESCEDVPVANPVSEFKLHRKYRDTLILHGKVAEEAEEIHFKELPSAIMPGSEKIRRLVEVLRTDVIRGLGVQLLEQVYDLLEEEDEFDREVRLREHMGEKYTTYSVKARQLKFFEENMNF
UniProt P52306: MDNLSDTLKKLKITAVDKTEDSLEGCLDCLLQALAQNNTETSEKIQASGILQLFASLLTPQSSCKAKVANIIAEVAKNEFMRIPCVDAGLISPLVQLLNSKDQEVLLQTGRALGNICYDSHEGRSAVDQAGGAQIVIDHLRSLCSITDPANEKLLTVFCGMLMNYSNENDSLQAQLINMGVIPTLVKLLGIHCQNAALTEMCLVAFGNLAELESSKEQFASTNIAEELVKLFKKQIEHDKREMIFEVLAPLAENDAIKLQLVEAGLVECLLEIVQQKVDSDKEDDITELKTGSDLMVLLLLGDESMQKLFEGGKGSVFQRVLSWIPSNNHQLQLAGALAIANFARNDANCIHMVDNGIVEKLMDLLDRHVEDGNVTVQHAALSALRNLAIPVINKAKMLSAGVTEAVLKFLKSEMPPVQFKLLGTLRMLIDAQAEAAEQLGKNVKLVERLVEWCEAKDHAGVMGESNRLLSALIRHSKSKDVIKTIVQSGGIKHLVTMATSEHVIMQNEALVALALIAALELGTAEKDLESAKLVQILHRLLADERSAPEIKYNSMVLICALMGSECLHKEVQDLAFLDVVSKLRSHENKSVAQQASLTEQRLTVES
UniProt P54578: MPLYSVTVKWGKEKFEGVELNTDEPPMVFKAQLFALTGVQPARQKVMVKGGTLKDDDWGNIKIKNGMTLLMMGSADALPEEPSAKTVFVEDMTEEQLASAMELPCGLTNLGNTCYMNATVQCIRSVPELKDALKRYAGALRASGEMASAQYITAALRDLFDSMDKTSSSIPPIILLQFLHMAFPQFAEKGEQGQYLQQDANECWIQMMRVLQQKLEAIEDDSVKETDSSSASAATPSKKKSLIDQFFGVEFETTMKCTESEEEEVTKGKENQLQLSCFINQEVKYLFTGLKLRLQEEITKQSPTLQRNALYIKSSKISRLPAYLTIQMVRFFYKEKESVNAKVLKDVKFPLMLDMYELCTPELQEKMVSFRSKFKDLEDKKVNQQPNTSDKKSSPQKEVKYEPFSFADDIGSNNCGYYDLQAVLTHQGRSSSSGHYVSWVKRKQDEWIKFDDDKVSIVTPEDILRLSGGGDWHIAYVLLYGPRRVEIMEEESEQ
UniProt P60981: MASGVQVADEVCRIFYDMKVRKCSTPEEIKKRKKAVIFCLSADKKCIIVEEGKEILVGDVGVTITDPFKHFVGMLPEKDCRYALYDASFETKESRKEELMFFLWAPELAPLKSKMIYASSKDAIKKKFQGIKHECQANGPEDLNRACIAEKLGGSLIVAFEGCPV
UniProt P52429: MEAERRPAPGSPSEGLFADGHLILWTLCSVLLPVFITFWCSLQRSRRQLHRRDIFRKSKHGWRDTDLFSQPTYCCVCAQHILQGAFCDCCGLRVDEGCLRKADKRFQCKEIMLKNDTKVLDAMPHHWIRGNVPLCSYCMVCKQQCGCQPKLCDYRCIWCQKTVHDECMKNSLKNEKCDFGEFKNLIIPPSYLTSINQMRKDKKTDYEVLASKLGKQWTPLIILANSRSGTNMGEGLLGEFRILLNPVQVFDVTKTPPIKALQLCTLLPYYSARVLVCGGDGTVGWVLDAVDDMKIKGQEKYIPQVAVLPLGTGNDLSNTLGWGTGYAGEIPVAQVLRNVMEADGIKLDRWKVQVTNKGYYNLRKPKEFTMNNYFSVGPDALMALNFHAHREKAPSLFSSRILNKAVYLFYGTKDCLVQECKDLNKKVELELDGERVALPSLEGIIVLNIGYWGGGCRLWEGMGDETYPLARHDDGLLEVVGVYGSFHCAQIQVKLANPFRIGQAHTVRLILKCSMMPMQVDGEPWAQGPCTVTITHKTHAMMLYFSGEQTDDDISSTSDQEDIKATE
UniProt P52789: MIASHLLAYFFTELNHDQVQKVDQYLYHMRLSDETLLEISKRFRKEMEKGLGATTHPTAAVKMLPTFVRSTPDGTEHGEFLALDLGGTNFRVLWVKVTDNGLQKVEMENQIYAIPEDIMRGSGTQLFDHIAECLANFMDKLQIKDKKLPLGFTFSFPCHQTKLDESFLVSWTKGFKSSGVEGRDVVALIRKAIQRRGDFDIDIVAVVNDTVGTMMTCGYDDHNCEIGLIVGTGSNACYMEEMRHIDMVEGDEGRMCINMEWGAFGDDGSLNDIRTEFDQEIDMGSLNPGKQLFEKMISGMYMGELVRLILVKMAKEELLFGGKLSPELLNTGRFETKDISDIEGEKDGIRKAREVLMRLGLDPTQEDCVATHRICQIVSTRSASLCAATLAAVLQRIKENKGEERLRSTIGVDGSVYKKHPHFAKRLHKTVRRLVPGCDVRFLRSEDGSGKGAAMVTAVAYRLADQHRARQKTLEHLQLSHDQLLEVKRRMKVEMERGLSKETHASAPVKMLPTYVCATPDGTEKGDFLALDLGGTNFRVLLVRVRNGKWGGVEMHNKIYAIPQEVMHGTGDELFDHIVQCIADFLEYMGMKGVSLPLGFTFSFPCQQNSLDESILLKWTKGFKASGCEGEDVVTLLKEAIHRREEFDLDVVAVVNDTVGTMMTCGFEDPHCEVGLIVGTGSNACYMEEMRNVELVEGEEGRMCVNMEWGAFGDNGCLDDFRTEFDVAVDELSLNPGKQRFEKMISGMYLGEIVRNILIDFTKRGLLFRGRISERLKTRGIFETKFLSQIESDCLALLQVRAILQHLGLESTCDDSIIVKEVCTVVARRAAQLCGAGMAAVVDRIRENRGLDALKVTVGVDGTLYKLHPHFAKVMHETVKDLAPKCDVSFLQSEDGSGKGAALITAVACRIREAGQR
UniProt P61970, whole entry: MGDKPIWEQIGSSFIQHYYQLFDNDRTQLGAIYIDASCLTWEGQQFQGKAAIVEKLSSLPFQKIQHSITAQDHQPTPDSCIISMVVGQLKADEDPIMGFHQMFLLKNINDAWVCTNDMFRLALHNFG
UniProt P57740: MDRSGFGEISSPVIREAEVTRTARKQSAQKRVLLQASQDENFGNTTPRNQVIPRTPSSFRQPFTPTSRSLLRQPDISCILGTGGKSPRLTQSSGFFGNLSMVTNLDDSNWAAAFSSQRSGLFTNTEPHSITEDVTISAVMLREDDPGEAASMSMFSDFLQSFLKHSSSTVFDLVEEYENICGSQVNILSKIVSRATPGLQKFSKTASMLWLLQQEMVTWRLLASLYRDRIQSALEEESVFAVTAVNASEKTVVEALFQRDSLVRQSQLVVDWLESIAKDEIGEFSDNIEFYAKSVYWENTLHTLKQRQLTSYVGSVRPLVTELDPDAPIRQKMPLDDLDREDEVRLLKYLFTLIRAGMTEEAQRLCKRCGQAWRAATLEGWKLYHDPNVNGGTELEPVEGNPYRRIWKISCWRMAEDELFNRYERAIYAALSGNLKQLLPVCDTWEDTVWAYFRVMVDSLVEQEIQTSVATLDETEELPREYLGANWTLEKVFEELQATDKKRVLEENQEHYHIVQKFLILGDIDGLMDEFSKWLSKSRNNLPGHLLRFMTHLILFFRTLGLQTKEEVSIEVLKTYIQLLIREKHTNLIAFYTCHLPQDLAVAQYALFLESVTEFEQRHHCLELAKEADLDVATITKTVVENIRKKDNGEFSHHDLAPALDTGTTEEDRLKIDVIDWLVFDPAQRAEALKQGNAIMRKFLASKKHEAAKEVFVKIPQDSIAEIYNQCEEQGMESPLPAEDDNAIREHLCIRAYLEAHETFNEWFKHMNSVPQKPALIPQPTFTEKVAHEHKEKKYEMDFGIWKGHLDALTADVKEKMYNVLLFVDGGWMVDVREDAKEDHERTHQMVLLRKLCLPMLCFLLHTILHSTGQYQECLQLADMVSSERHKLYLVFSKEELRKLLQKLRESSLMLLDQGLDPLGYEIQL

compound: COC(=O)C#Cc1ccccc1 [methyl 3-phenylpropiolate]; assay: log2 ratio of iodoacetamide-alkyne labeling of the cysteine site, DMSO over compound (competition); higher = stronger covalent engagement of the cysteine by the compound, active = 1 or more; conditions: 500 µM; treatment time 1 h; system: HEK293T cell lysate
In short: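 For each cysteine, the log2 competition ratio is mean control-channel reporter intensity over mean compound-channel reporter intensity. HEK293T lysate (2 mg/mL) was exposed to vehicle or electrophile (500 µM, 1 h, ambient temperature), labelled with iodoacetamide alkyne (1 h), clicked to sCIP-TMT reagents, digested overnight with trypsin at 37 °C, streptavidin-enriched and analysed by Orbitrap Eclipse LC-MS/MS with FAIMS and FragPipe. Cysteines quantified in only one of three replicates, each with duplicate channels, were excluded.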

Row | Target | log2 ratio of iodoacetamide-alkyne labeling
1 | UniProt P55769_C93 | inactive: 0.185
2 | UniProt P61160_C20 | inactive: 0.286
3 | UniProt P61927_C37 | inactive: -0.0334
4 | CSE1L C842 (UniProt P55060) | inactive: 0.747
5 | HNRNPF C290 (UniProt P52597) | inactive: 0.0362
6 | ADAR C1224 (UniProt P55265) | inactive: 0.987
7 | NEK4 C401 (UniProt P51957) | inactive: 0.279
8 | COPB1 C248 (UniProt P53618) | inactive: -0.00654
9 | ALDH18A1 C546 (UniProt P54886) | inactive: 0.0415
10 | RAP1GDS1 C85 (UniProt P52306) | inactive: 0.197
11 | USP14 C415 (UniProt P54578) | inactive: -0.369
12 | ALDH18A1 C612 (UniProt P54886) | inactive: 0.146
13 | CTBP2 C318 (UniProt P56545) | inactive: 0.0531
14 | UniProt P55769_C30 | inactive: -0.0266
15 | MARS C38 (UniProt P56192) | inactive: 0.14
16 | COPB1 C684 (UniProt P53618) | inactive: 0.337
17 | RBM5 C766 (UniProt P52756) | inactive: 0.594
18 | NPEPPS C887 (UniProt P55786) | inactive: 0.408

Row | Target | log2 ratio of iodoacetamide-alkyne labeling
19 | HNRNPM C676 (UniProt P52272) | inactive: 0.154
20 | EIF6 C110 (UniProt P56537) | inactive: 0.272
21 | UniProt P60228_C298 | inactive: -0.641
22 | ADAR C519 (UniProt P55265) | inactive: 0.129
23 | DSTN C163 (UniProt P60981) | inactive: 0.149
24 | DGKE C135 (UniProt P52429) | inactive: 0.156
25 | HK2 C606 (UniProt P52789) | inactive: 0.098
26 | UniProt P51812_C579 | inactive: 0.153
27 | METAP1 C9 (UniProt P53582) | inactive: 0.325
28 | HSD17B4 C373 (UniProt P51659) | inactive: 0.219
29 | ADAR C392 (UniProt P55265) | inactive: 0.693
30 | UniProt P61970_C114 | inactive: 0.112
31 | MSH6 C1337 (UniProt P52701) | inactive: 0.14
32 | ELL C473 (UniProt P55199) | inactive: 0.872
33 | DSTN C23 (UniProt P60981) | inactive: 0.188
34 | NUP107 C78 (UniProt P57740) | inactive: 0.705
35 | UniProt P60709_C257 | inactive: 0.0972
36 | CORO7 C505 (UniProt P57737) | inactive: 0.469

Reformatted: results already given
Row	Target	log2 ratio of iodoacetamide-alkyne labeling
3	UniProt P61927_C37	inactive: -0.0334
6	ADAR C1224 (UniProt P55265)	inactive: 0.987
10	RAP1GDS1 C85 (UniProt P52306)	inactive: 0.197
14	UniProt P55769_C30	inactive: -0.0266
20	EIF6 C110 (UniProt P56537)	inactive: 0.272
21	UniProt P60228_C298	inactive: -0.641
28	HSD17B4 C373 (UniProt P51659)	inactive: 0.219
30	UniProt P61970_C114	inactive: 0.112
33	DSTN C23 (UniProt P60981)	inactive: 0.188
